# Experimental data published in the supplement of paper PMC4604168 (melanoma cell lines).
# The list shows a part of the results. Single values are uncertain, as repeats are few or missing.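 The apoptosis fraction was the count of cleaved-PARP antibody-stained nuclei relative to all DNA-stained nuclei, imaged in 1,536-well plates. Screening doses were set so most cells survived, and baseline and induced cleaved-PARP levels vary greatly across cell lines.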
# Test system: CBRC014 (line from a melanoma biopsy)
# Assay: cleaved PARP positive nuclei fraction relative to DMSO control; melanoma cells; higher = more apoptosis
# Settings: library dose: low library concentration; 72 h
row,SMILES,cleaved PARP positive nuclei fraction [%]
1,"O=C(/C=C/c1cccnc1)NCCCCC1CCN(C(=O)c2ccccc2)CC1 + C[As](C)SC[C@H](NC(=O)CC[C@H](N)C(=O)O)C(=O)NCC(=O)O [Darinaparsin] (first compound 0.01 µM, partner dose 0.4 µM)",96.4
2,"OCc1c[nH]c2ccccc12 [Indole-3-carbinol] + C[As](C)SC[C@H](NC(=O)CC[C@H](N)C(=O)O)C(=O)NCC(=O)O [Darinaparsin] (first compound 0.8 µM, partner dose 0.4 µM)",101
3,"Nc1ccn([C@@H]2O[C@H](CO)[C@@H](O)C2(F)F)c(=O)n1 [gemcitabine] + C[As](C)SC[C@H](NC(=O)CC[C@H](N)C(=O)O)C(=O)NCC(=O)O [Darinaparsin] (first compound 0.0004 µM, partner dose 0.4 µM)",162
4,"Cn1c(=O)n(-c2ccc(C(C)(C)C#N)cc2)c2c3cc(-c4cnc5ccccc5c4)ccc3ncc21 + C[As](C)SC[C@H](NC(=O)CC[C@H](N)C(=O)O)C(=O)NCC(=O)O [Darinaparsin] (first compound 0.004 µM, partner dose 0.4 µM)",81.7
5,"N.N.[Cl][Pt][Cl] [cisplatin] + Cc1nc(Nc2ncc(C(=O)Nc3c(C)cccc3Cl)s2)cc(N2CCN(CCO)CC2)n1 [dasatanib] (first compound 1.6 µM, partner dose 0.004 µM)",120
6,"N.N.[Cl][Pt][Cl] [cisplatin] + C[C@@H](Oc1cc(-c2cnn(C3CCNCC3)c2)cnc1N)c1c(Cl)ccc(F)c1Cl [Crizotinib] (first compound 1.6 µM, partner dose 0.2 µM)",102
7,"Cn1cc(C2=C(c3cn(C4CCN(Cc5ccccn5)CC4)c4ccccc34)C(=O)NC2=O)c2ccccc21 [Enzastaurin] + O=C(O)[C@@H]1[O][Sb](=[O])([O][Sb]2(=[O])[O][C@H]([C@H](O)CO)[C@H](O)[C@H](C(=O)O)[O]2)[O][C@H]([C@H](O)CO)[C@@H]1O [stibogluconate] (first compound 0.8 µM, partner dose 2 µM)",70.3
8,"C[C@]12O[C@H](C[C@]1(O)CO)n1c3ccccc3c3c4c(c5c6ccccc6n2c5c31)CNC4=O [Lestaurtinib] + Nc1ccn([C@@H]2O[C@H](CO)[C@@H](O)C2(F)F)c(=O)n1 [gemcitabine] (first compound 0.004 µM, partner dose 0.0004 µM)",110
9,"N.N.[Cl][Pt][Cl] [cisplatin] + CN1CCN(c2ccc3nc(-c4c(N)c5c(F)cccc5[nH]c4=O)[nH]c3c2)CC1 [Dovitinib] (first compound 1.6 µM, partner dose 0.1 µM)",98.3
10,"NC1(c2ccc(-c3nc4ccn5c(=O)[nH]nc5c4cc3-c3ccccc3)cc2)CCC1 + C[As](C)SC[C@H](NC(=O)CC[C@H](N)C(=O)O)C(=O)NCC(=O)O [Darinaparsin] (first compound 0.4 µM, partner dose 0.4 µM)",96

# Looked up above:
# cleaved PARP positive nuclei fraction [%], Cn1cc(C2=C(c3cn(C4CCN(Cc5ccccn5)CC4)c4ccccc34)C(=O)NC2=O)c2ccccc21 [Enzastaurin] + O=C(O)[C@@H]1[O][Sb](=[O])([O][Sb]2(=[O])[O][C@H]([C@H](O)CO)[C@H](O)[C@H](C(=O)O)[O]2)[O][C@H]([C@H](O)CO)[C@@H]1O [stibogluconate] (first compound 0.8 µM, partner dose 2 µM) reads 70.3
# cleaved PARP positive nuclei fraction [%], Cn1c(=O)n(-c2ccc(C(C)(C)C#N)cc2)c2c3cc(-c4cnc5ccccc5c4)ccc3ncc21 + C[As](C)SC[C@H](NC(=O)CC[C@H](N)C(=O)O)C(=O)NCC(=O)O [Darinaparsin] (first compound 0.004 µM, partner dose 0.4 µM) reads 81.7

# Test system: CBRC016 (line from a melanoma biopsy)
# Assay: as above
# Settings: library dose: low library concentration; 72 h
row,SMILES,cleaved PARP positive nuclei fraction [%]
1,"O=c1[nH]nc(Sc2ncc([N+](=O)[O-])s2)n1-c1ccc2c(c1)OCCO2 + N.N.[Cl][Pt][Cl] [cisplatin] (first compound 0.2 µM, partner dose 1.6 µM)",168
2,"N.N.[Cl][Pt][Cl] [cisplatin] + C=C(c1ccc(C(=O)O)cc1)c1cc2c(cc1C)C(C)(C)CCC2(C)C [Bexarotene] (first compound 1.6 µM, partner dose 2 µM)",319
3,"C=C(c1ccc(C(=O)O)cc1)c1cc2c(cc1C)C(C)(C)CCC2(C)C [Bexarotene] + C[As](C)SC[C@H](NC(=O)CC[C@H](N)C(=O)O)C(=O)NCC(=O)O [Darinaparsin] (first compound 2 µM, partner dose 0.4 µM)",112
4,"Cc1cc(Nc2cc(N3CCN(C)CC3)nc(Sc3ccc(NC(=O)C4CC4)cc3)n2)n[nH]1 [Tozasertib] + Cn1cc(C2=C(c3cn(C4CCN(Cc5ccccn5)CC4)c4ccccc34)C(=O)NC2=O)c2ccccc21 [Enzastaurin] (first compound 0.006 µM, partner dose 0.8 µM)",158
5,"CCN(CC)CCNC(=O)c1c(C)[nH]c(/C=C2\C(=O)Nc3ccc(F)cc32)c1C [sunitinib] + N.N.[Cl][Pt][Cl] [cisplatin] (first compound 0.4 µM, partner dose 1.6 µM)",75.8
6,"Cn1cc(C2=C(c3cn(C4CCN(Cc5ccccn5)CC4)c4ccccc34)C(=O)NC2=O)c2ccccc21 [Enzastaurin] + OCc1c[nH]c2ccccc12 [Indole-3-carbinol] (first compound 0.8 µM, partner dose 0.8 µM)",98.3
7,"C[As](C)SC[C@H](NC(=O)CC[C@H](N)C(=O)O)C(=O)NCC(=O)O [Darinaparsin] + Nc1cccc2c1CN(C1CCC(=O)NC1=O)C2=O [lenalidomide] (first compound 0.4 µM, partner dose 1 µM)",81.7
8,"C[C@]12O[C@H](C[C@]1(O)CO)n1c3ccccc3c3c4c(c5c6ccccc6n2c5c31)CNC4=O [Lestaurtinib] + Clc1ccc(Nc2nnc(Cc3ccncc3)c3ccccc23)cc1 [vatalanib] (first compound 0.004 µM, partner dose 2 µM)",143
9,"Cn1cc(C2=C(c3cn(C4CCN(Cc5ccccn5)CC4)c4ccccc34)C(=O)NC2=O)c2ccccc21 [Enzastaurin] + O=C(O)c1ccc2c(c1)nc(Nc1cccc(Cl)c1)c1ccncc12 [CX4945] (first compound 0.8 µM, partner dose 0.4 µM)",85.9
10,"C[C@]12O[C@H](C[C@]1(O)CO)n1c3ccccc3c3c4c(c5c6ccccc6n2c5c31)CNC4=O [Lestaurtinib] + Nc1ncn([C@H]2C[C@H](O)[C@@H](CO)O2)c(=O)n1 [decitabine] (first compound 0.004 µM, partner dose 0.1 µM)",33.4
11,"Cn1cc(C2=C(c3cn(C4CCN(Cc5ccccn5)CC4)c4ccccc34)C(=O)NC2=O)c2ccccc21 [Enzastaurin] + C[C@]1(c2nc3c(C(N)=O)cccc3[nH]2)CCCN1 [Veliparib] (first compound 0.8 µM, partner dose 1.4 µM)",103
12,"Cc1ccc(Nc2nccc(N(C)c3ccc4c(C)n(C)nc4c3)n2)cc1S(N)(=O)=O [Pazopanib] + N.N.[Cl][Pt][Cl] [cisplatin] (first compound 0.4 µM, partner dose 1.6 µM)",51.9
13,"C[As](C)SC[C@H](NC(=O)CC[C@H](N)C(=O)O)C(=O)NCC(=O)O [Darinaparsin] + Cn1c(Nc2ccc(C(F)(F)F)cc2)nc2cc(Oc3ccnc(-c4ncc(C(F)(F)F)[nH]4)c3)ccc21 [CHIR265] (first compound 0.4 µM, partner dose 0.08 µM)",46.8
14,"CC[C@]1(O)C[C@H]2CN(CCc3c([nH]c4ccccc34)[C@@](C(=O)OC)(c3cc4c(cc3OC)N(C=O)[C@H]3[C@@](O)(C(=O)OC)[C@H](OC(C)=O)[C@]5(CC)C=CCN6CC[C@]43[C@@H]65)C2)C1 [vincristine] + N.N.[Cl][Pt][Cl] [cisplatin] (first compound 0.0001 µM, partner dose 1.6 µM)",127
15,"O=C(/C=C/c1cccnc1)NCCCCC1CCN(C(=O)c2ccccc2)CC1 + N.N.[Cl][Pt][Cl] [cisplatin] (first compound 0.01 µM, partner dose 1.6 µM)",1690
16,"Nc1ncn([C@H]2C[C@H](O)[C@@H](CO)O2)c(=O)n1 [decitabine] + C[As](C)SC[C@H](NC(=O)CC[C@H](N)C(=O)O)C(=O)NCC(=O)O [Darinaparsin] (first compound 0.1 µM, partner dose 0.4 µM)",130
17,"C#Cc1cccc(Nc2ncnc3cc(OCCOC)c(OCCOC)cc23)c1 [erlotinib] + C[As](C)SC[C@H](NC(=O)CC[C@H](N)C(=O)O)C(=O)NCC(=O)O [Darinaparsin] (first compound 0.8 µM, partner dose 0.4 µM)",182
18,"Cn1cc(C2=C(c3cn(C4CCN(Cc5ccccn5)CC4)c4ccccc34)C(=O)NC2=O)c2ccccc21 [Enzastaurin] + CC(=O)c1c(C)c2cnc(Nc3ccc(N4CCNCC4)cn3)nc2n(C2CCCC2)c1=O [palbociclib] (first compound 0.8 µM, partner dose 0.04 µM)",89.4
19,"N.N.[Cl][Pt][Cl] [cisplatin] + O=C(O)[C@@H]1[O][Sb](=[O])([O][Sb]2(=[O])[O][C@H]([C@H](O)CO)[C@H](O)[C@H](C(=O)O)[O]2)[O][C@H]([C@H](O)CO)[C@@H]1O [stibogluconate] (first compound 1.6 µM, partner dose 2 µM)",31.7
20,"Cc1cn(-c2cc(NC(=O)c3ccc(C)c(Nc4nccc(-c5cccnc5)n4)c3)cc(C(F)(F)F)c2)cn1 [nilotinib] + C[C@]12O[C@H](C[C@]1(O)CO)n1c3ccccc3c3c4c(c5c6ccccc6n2c5c31)CNC4=O [Lestaurtinib] (first compound 0.2 µM, partner dose 0.004 µM)",131
21,"CO[C@H]1C[C@@H]2CC[C@@H](C)[C@@](O)(O2)C(=O)C(=O)N2CCCC[C@H]2C(=O)O[C@H]([C@H](C)C[C@@H]2CC[C@@H](OCCO)[C@H](OC)C2)CC(=O)[C@H](C)/C=C(\C)[C@@H](O)[C@@H](OC)C(=O)[C@H](C)C[C@H](C)/C=C/C=C/C=C/1C [everolimus] + C[As](C)SC[C@H](NC(=O)CC[C@H](N)C(=O)O)C(=O)NCC(=O)O [Darinaparsin] (first compound 0.02 µM, partner dose 0.4 µM)",73.7
